# Hit rate of the full screen: of about 360,000 compounds, about 9,100 (2.5%) were called active. Inconclusive means that the source gave no clear call. Such entries were picked first, then a sample of the others. Rule as the data show it: active = max response below about -50%; inconclusive = no clear call, values can overlap the other calls; inactive = above that. A structure can be active in one record and inactive in another.
# Chains of the proteins cited; added tags and fusions are not shown.
# UniProt P35462, whole entry, looked up: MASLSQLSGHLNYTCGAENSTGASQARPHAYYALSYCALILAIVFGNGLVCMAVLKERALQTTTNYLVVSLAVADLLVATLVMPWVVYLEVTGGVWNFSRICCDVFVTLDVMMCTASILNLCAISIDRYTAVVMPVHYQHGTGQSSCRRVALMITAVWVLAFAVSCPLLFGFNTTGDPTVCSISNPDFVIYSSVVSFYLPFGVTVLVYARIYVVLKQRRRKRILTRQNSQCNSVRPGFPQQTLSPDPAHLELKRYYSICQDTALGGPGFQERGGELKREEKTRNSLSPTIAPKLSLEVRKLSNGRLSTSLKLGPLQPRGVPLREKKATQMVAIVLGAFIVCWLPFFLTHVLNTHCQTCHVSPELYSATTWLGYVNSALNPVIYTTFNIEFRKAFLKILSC
# Molecular target: D(3) dopamine receptor (Homo sapiens) (UniProt P35462)
# Experiment: qHTS of D3 Dopamine Receptor Antagonist: qHTS
# Details: D3R cells, DiscoveRx beta-arrestin luminescence, antagonist mode; hits give low values
# Method in brief: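 Cells plated overnight at 1500 cells/well, then exposed to library compounds with dopamine controls for 90 minutes at 37 degrees C. DiscoveRx reagent added for 30–60 minutes at room temperature; luminescence read, quantitative HTS format.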
# % is scaled to controls: 0 for no effect and ±100 for the full control effect.
row,Compound,"max response, negative = inhibition"
1,CCn1c(O)c(N=Nc2ccc(S(=O)(=O)N3CCOCC3)cc2)c(=O)n(CC)c1=S,active: -70.9%
2,COC(=O)C1=C(c2ccc(S(C)(=O)=O)cc2)C[C@@H]2CC[C@H]1N2C(=O)NCc1ccc(F)cc1,inactive: -3.67%
3,N#CC1c2ccccc2-n2nncc2CN1C(=O)c1ccccc1F (configuration not stated),inconclusive: -31.3%
4,OCC1OC(n2cnc3cc(Cl)c(Cl)cc32)C(O)C1O (configuration not stated),inconclusive: -34.6%
5,CC(C)(C)n1nnnc1C(C1CC1)N1CCC2(CC1)C(=O)NCN2c1ccccc1 (configuration not stated),inconclusive: -45.4%
6,CC(C)(C)N1Cc2ccccc2C1=N,inconclusive: -35.3%
7,Nc1c(C(=O)NCCN2CCOCC2)c2nc3ccccc3nc2n1Cc1ccco1,inactive: -27.5%
8,CC1(C(O)(C#CCN2CCCCC2)c2ccccc2)CCCC1 (configuration not stated),inconclusive: -48.4%
9,C[N+]1(C)[C@@H]2CC[C@H]1CC(OC(=O)C(c1ccccc1)c1ccccc1)C2 (some centres not stated),inactive: 7.53%
10,C=C1C(=O)O[C@@H]2C[C@@H](C)[C@@H]3C=CC(=O)[C@@]3(C)[C@@H](O)[C@H]12,active: -102%
11,Fc1cccc(CCNCc2ccccn2)c1,inconclusive: -47.1%
12,COC(=O)C1=C(c2cccc(C#N)c2)C[C@@H]2CC[C@H]1N2C(=O)NCc1cc(C)oc1C(F)(F)F,inconclusive: -39.8%
13,O=C1c2ccccc2-n2nnnc2C2c3ccccc3-n3nncc3CN12 (configuration not stated),inconclusive: -30.9%
14,COc1ccc(CCN)cc1OC,inactive: 11.9%
15,O=C1NCN(c2ccccc2)C12CCN(C(c1cccc3ccccc13)c1nnnn1C1CCCCC1)CC2 (configuration not stated),active: -70.1%
16,O=C(CCCOc1ccc(Cl)cc1Cl)N1CCC2(CC1)OCCO2,inconclusive: -33.4%
17,COc1ccccc1CN1CCCC(C(=O)c2ccccc2SC)C1 (configuration not stated),inconclusive: -44.7%
18,CC1([N+](=O)[O-])COP(=O)(Nc2cccc(Cl)c2)OC1 (configuration not stated),inactive: 3.53%
19,CCCCc1ccc(C(=O)O)nc1,inconclusive: -48%

row,Compound,"max response, negative = inhibition"
1,Oc1ccc(Cl)cc1CN1CCN(Cc2ccccc2)CC1,active: -65.5%
2,CC(C)Cc1nc(N2CCNCC2)c(C#N)c2c1CCC2,inconclusive: -49.6%
3,COC(=O)C1=C(c2ccc(OC(F)(F)F)cc2)C[C@@H]2CC[C@H]1N2C(=O)NCCOc1ccccc1,inconclusive: -42.7%
4,Cc1nc2cc([N+](=O)[O-])ccc2c(=O)n1-c1ccccc1[N+](=O)[O-],inconclusive: -31.9%
5,CC(=O)Nc1ccccc1OP1(=O)COc2ccccc2OC1,inconclusive: -33.4%
6,C/C(=N\NC(=O)c1ccccc1O)c1c(O)n(C2CCCCC2)c(=O)[nH]c1=O,inconclusive: -32%
7,O=C1OC(c2ccc(Cl)cc2)=N/C1=C\N1CC2CC(C1)c1cccc(=O)n1C2 (configuration not stated),inactive: 3.67%
8,CCCCn1c(=O)c(C(=O)Nc2cccc(C)c2)c(O)c2ccccc21,inactive: 20.2%
9,CCCCCCC(=O)N/N=C/c1c(O)n(C(C)CC)c(=S)[nH]c1=O (configuration not stated),inconclusive: -30.9%
10,Fc1c(F)c(F)c(N2CCNCC2)c(F)c1F,inconclusive: -32.8%
11,CCN(CC)CCCN=Cc1c(O)n(CCc2ccc(OC)c(OC)c2)c(=O)[nH]c1=O,inconclusive: -37.1%
12,O=C(O)c1nonc1-c1nonc1C(=O)O,inconclusive: -38%
13,NNC(=O)c1ccc(Cl)cc1,inconclusive: -34.1%
14,Clc1cccc(CNCCc2ccc3c(c2)OCO3)c1,inconclusive: -37.5%
15,O=C(CCN1CC1)OCCOC(=O)CCN1CC1,inactive: 16.8%
16,CCN(CC)C(=O)c1ccc(NC(=O)CN2CCc3cc(OC)c(OC)cc3C2)cc1,inactive: -20.8%
17,CCOC(=O)[C@]12Cc3cc4ccccc4cc3[C@H]1N(Cc1ccccc1)C(=O)c1cc(OC)ccc12,inactive: -20.1%
18,COc1ccc(CC(C)NCCC(c2ccccc2)c2ccccc2)cc1 (configuration not stated),inconclusive: -49.5%
19,CCN(CC)CCCOC(=O)C(OC)(c1ccccc1)c1ccccc1,inconclusive: -49.6%

# Quoted at random: 3 records from the list, in no set order.
row,Compound,"max response, negative = inhibition"
14,Clc1cccc(CNCCc2ccc3c(c2)OCO3)c1,inconclusive: -37.5%
17,CCOC(=O)[C@]12Cc3cc4ccccc4cc3[C@H]1N(Cc1ccccc1)C(=O)c1cc(OC)ccc12,inactive: -20.1%
15,O=C(CCN1CC1)OCCOC(=O)CCN1CC1,inactive: 16.8%

# Part of the list above, bar-delimited.
row | Compound | max response, negative = inhibition
19 | CCCCc1ccc(C(=O)O)nc1 | inconclusive: -48%
1 | Oc1ccc(Cl)cc1CN1CCN(Cc2ccccc2)CC1 | active: -65.5%

# Following part

row,Compound,"max response, negative = inhibition"
1,CC1(C)C[C@H]2C=C(C=O)[C@]3(C=O)C[C@]3(C)[C@H]2C1,inconclusive: -45.7%
2,CCCCNC(C)Cc1ccccc1 (configuration not stated),active: -50.8%
3,CN1CCN(c2ccc([N+](=O)[O-])c3no[n+]([O-])c23)CC1,inconclusive: -45.1%
4,CCC(C)C1NC(=O)C(NC(=O)C(CC(C)C)N(C)C(=O)C2CCCN2C(=O)C(C)O)C(C)OC(=O)C(Cc2ccc(OC)cc2)N(C)C(=O)C2CCCN2C(=O)C(CC(C)C)NC(=O)[C@H](C)C(=O)[C@H](C(C)C)OC(=O)CC1O (some centres not stated),inconclusive: -40.5%
5,Clc1cccc(N2CCNCC2)c1,active: -76.4%
6,NC(=O)c1ccc(OCCC(O)N2CC=C(c3ccc(F)cc3)CC2)cc1 (configuration not stated),active: -57.3%
7,O=C(Cc1ccccc1)OCCN1CCCCC1,inconclusive: -46.9%
8,C=CCN1C(=O)/C(=C/c2cc(C)n(-c3cccnc3)c2C)C(=O)NC1=S,inactive: -11%
9,CC1CN=C(Nc2ccc(F)c(Cl)c2)S1 (configuration not stated),inconclusive: -31.6%
10,CCC(c1nnnn1-c1ccc2c(c1)OCCO2)N1CCC2(CC1)C(=O)NCN2c1ccccc1 (configuration not stated),active: -50.7%
11,COC(=O)C1=C(c2cc3ccccc3o2)C[C@@H]2CC[C@H]1N2C(=O)NCc1cccc2ccccc12,inconclusive: -39%
12,NCCc1cc(O)c(O)cc1O,active: -68.2%
13,CC12CCC3C(CCC4(O)CC(O)CCC34C=O)C1(O)CCC2C1=CC(=O)OC1 (configuration not stated),inactive: -7.98%
14,COc1cccc(N2CCN(Cc3ccc(Cl)cc3)CC2)c1,active: -93.6%
15,Cc1cc([N+](=O)[O-])c2ccccc2[n+]1[O-],inconclusive: -33.5%
16,OC1/C(=C/c2ccc(F)cc2)N2CCC1CC2 (configuration not stated),inactive: -0.446%
17,Cc1cc(Br)cn2c(CC(=O)N3CCCCC3)c(-c3ccc(F)cc3)nc12,inconclusive: -37.2%
18,COc1cc(C2NCc3ccccc3-n3cccc32)ccc1O (configuration not stated),inconclusive: -37.5%
19,COCCCN1CCN(c2nnc3n2-c2sc(Br)cc2C(c2ccccc2Cl)=NC3)CC1,active: -56.5%

# From PubChem BioAssay AID652054 (National Center for Advancing Translational Sciences (NCATS), 2013)
